No constants are given. Whether binding was seen depends on the method and setting. In cells and extracts the contact can be indirect. Some results given as binding are weak or reduced against the parent protein; the word gives no strength. Where a sequence is shown, tags or fusion partners need not be part of it.

Chains of the proteins cited; added tags and fusions are not shown.
UniProt P32597: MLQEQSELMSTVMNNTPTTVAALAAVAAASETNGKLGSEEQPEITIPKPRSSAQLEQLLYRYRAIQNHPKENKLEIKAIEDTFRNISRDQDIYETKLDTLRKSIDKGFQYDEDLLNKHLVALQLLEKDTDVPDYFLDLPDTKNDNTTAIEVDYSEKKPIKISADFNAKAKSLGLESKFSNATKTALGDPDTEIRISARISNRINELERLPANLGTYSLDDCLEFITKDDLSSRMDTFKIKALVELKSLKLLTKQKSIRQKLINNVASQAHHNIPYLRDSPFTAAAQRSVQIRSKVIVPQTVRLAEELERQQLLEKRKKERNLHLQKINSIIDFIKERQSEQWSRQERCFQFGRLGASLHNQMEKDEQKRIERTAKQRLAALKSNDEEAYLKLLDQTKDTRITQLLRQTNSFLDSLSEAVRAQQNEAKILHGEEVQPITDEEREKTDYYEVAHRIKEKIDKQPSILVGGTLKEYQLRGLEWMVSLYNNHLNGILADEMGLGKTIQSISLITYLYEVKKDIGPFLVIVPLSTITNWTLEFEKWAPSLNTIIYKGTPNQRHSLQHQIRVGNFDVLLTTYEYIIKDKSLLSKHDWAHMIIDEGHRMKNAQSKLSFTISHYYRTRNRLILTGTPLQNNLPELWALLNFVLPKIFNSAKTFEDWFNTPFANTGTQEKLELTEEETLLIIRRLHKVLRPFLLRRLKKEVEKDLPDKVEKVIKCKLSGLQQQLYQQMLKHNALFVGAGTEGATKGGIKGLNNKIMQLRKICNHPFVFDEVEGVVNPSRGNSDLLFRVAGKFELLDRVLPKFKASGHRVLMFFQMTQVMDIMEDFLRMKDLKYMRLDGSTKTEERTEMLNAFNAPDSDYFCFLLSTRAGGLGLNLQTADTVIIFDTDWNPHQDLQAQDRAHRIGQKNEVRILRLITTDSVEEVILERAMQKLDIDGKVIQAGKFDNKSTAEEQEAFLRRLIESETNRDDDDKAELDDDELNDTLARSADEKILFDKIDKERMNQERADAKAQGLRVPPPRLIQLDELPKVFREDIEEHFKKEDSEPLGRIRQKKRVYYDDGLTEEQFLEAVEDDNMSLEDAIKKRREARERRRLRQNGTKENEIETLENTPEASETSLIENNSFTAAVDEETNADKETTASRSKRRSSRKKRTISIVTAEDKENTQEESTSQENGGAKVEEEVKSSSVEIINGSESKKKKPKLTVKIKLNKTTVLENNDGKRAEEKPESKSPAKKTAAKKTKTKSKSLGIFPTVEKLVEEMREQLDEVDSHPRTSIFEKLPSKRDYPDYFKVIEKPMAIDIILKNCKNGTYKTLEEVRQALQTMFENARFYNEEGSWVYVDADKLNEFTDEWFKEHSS

The results in this text go back to PMC4150788.

In this assay the target is Sth1-Myc (S. cerevisiae) (UniProt P32597). Description: co-IP; Sth1-Myc precipitated with 9E10 anti-Myc antibody on Dynabeads from whole-cell extracts of bud27Δ cells expressing Bud27-GFP; western blot with anti-Myc and anti-GFP. Background: Immunoblotting shows a protein as a band on a membrane.

B1: Bud27-GFP (protein, UniProt P43573 1-796)
chain: MDLLAASVESTLKNLQDKRNFLSEQREHYIDIRSRLVRFINDNDDGEEEGEGQGMVFGDIIISTSKIYLSLGYEYYVEKTKEEAITFVDDKLKLMEDAIEQFNLKIEEAKKTLDNLNHMEDGNGIEEDEANNDEDFLPSMEIREELDDEGNVISSSVTPTTKQPSQSNSKKEQTPAVGPKEKGLAKEKKSKSFEENLKGKLLKRNDEVKKKVQPSKVDTENVYTFADLVQQMDQQDELEDGYIETDEINYDYDAFENSNFKVNDNYEEDDEDEDEEEYLNHSIIPGFEAQSSFLQQIQRLRAQKQSQDHEREEGDVNKSLKPILKKSSFAENSDKKQKKKQVGFASSLEIHEVENLKEENKRQMQSFAVPMYETQESTGIANKMTSDEFDGDLFAKMLGVQEADEVHEKYKEELINQERLEGEASRSNRRTRVSRFRKDRASKKENTLSTFKQETTRSVENEVVEKEPVVGDIIEKEPVVGDVIEKEPVVGDVIEKEPAVTDIVEREPAVNDIVERKPVVGDIIEKEPTINDIVEKEPEINSKSEFETPFKKKKLKSLQKPRSSKSMKKKFDPKILENISDDDYDDDDDGNKKLLSNKSKNNTDEQDKFPSKIQEVSRSMAKTGATVGSEPVRITNVDYHALGGNLDDMVKAYSLGLYDDDLEEDPGTIVEKLEDFKEYNKQVELLRDEIRDFQLENKPVTMEEEENDGNVMNDIIEHEFPESYTNDEDEVALHPGRLQEEVAIEYRRLKEATASKWQSSSPAAHTEGELEPIDKFGNPVKTSRFRSQRLHMDSKP
On to B1, for which the binding entry is recorded as “binds”.
